Source: PubChem BioAssay AID602196 (INSERM, 2012)

Test: 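Genes whose knock-down alters cisplatin killing of lung cancer cells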
Cells: human A549 lung cancer cells
Reagent: siRNA pair against human genes
Time to read-out: 48 h transfection before cisplatin; time from cisplatin to read-out not stated
Conditions: cisplatin at a dose killing half of control-siRNA cells; exact dose and duration not given
Measurement: 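Cisplatin cell death as a shift from the 50% death seen with control siRNA; siRNAs toxic or growth-blocking alone scored 0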
Scale: two-siRNA summed score (-2 to +2): higher = both siRNAs protect from cisplatin killing; -2 means both sensitise; mean protection from cisplatin (shift in death) and protection from cisplatin (shift in death), siRNA C and protection from cisplatin (shift in death), siRNA D: higher = protection from cisplatin killing
Hit rule: 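siRNAs harmful alone (LDH or WST-1) get 0; others get +1 for less and -1 for more cisplatin killing; genes are active when the two siRNAs give the same sign, summing to ±2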
Calls: active = both siRNAs shift cisplatin killing the same way; inactive = no consistent shift, or siRNA harmful alone
Shown is a random part of about 23,000 deposited reagents. 455 of all reagents (2%) count as active. 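Active includes both protection and sensitisation; some change values fall well beyond the stated -50 to +50 range.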 A number with no mark means an inactive call. Not stated in the record: the amount of reagent.

| gene | two-siRNA summed score (-2 to +2) | mean protection from cisplatin (shift in death) (%) | protection from cisplatin (shift in death), siRNA C (%) | protection from cisplatin (shift in death), siRNA D (%) |
| --- | --- | --- | --- | --- |
| LRRC3 (GeneID 81543) | 0 | 0.2 | 1.8 | -1.4 |
| VPS39 (GeneID 23339) | 0 | -9.5 | 16.2 | -35.1 |
| UGT1A4 (GeneID 54657) | 0 | 21.3 | 2.6 | 40 |
| TAS2R3 (GeneID 50831) | -1 | -9.6 | -25.6 | 6.4 |
| LOC441401 | 0 | -4 | 2.6 | -10.7 |
| GPATCH11 (GeneID 253635) | 1 | 19.3 | 18.7 | 20 |
| DYNLL1P3 (GeneID 391012) | 1 | 25.7 | 22.2 | 29.2 |
| AKAP11 (GeneID 11215) | 0 | 7.9 | 21.9 | -6.1 |
| SDC4 (GeneID 6385) | 0 | -3.1 | -1.3 | -4.9 |
| PDK4 (GeneID 5166) | 2 (active) | 31.2 | 25.8 | 36.6 |
| ZDHHC21 (GeneID 340481) | 0 | 7.4 | 6.2 | 8.6 |
| LOC440163 | 1 | 16.8 | 17.1 | 16.6 |
| ATP1A1 (GeneID 476) | 1 | 15 | 17 | 12.9 |
| SPRNP1 (GeneID 399833) | 0 | -0.1 | 15.9 | -16.1 |
| DDX25 (GeneID 29118) | 0 | 4.2 | 3 | 5.3 |
| SLC16A5 (GeneID 9121) | -1 | -12.5 | -4.9 | -20.1 |
| LOC389189 | 0 | 4.6 | 4.4 | 4.9 |
| TJP3 (GeneID 27134) | 0 | -10.3 | -13.1 | -7.5 |
| LOC441365 | 0 | 3.2 | 0.7 | 5.8 |
| WDR27 (GeneID 253769) | 0 | 13.4 | 8.4 | 18.4 |
| BMPR1A (GeneID 657) | 0 | -0.5 | -1.3 | 0.3 |
| RNF11 (GeneID 26994) | 0 | -26.5 | -1.1 | -51.8 |
| ZG16B (GeneID 124220) | 0 | -1.1 | -6.5 | 4.4 |
| LOC440477 | 2 (active) | 20.3 | 9.7 | 30.9 |
| EZR (GeneID 7430) | -1 | -13.2 | -12.9 | -13.6 |
| SH3D19 (GeneID 152503) | 0 | 1.1 | -8.6 | 10.9 |
| ASB8 (GeneID 140461) | -2 (active) | -14.3 | -16.1 | -12.5 |
| OR56A4 (GeneID 120793) | 0 | 8.5 | 9.1 | 8 |
| KPNA1 (GeneID 3836) | 0 | 15.4 | 14.8 | 16 |
| KLF2 (GeneID 10365) | 1 | 15.4 | 25.1 | 5.8 |
| REG1A (GeneID 5967) | 0 | 4.4 | -8.6 | 17.3 |
| TSC22D1 (GeneID 8848) | 0 | 1.5 | 3.9 | -0.9 |
| KIAA0540 | 0 | 6 | 3.7 | 8.4 |
| SLPI (GeneID 6590) | 1 | 9.1 | 3.3 | 14.9 |
| CRAT (GeneID 1384) | 1 | 7.9 | 29.8 | -14 |
| LOC441886 | 0 | 6.7 | 4.7 | 8.8 |
| PDE7B (GeneID 27115) | -1 | -15 | -14.6 | -15.4 |
| TSEN34 (GeneID 79042) | 0 | -10.5 | -15.1 | -5.9 |
| GPR160 (GeneID 26996) | 0 | -3.5 | -3.7 | -3.2 |
| SRSF2P1 (GeneID 392439) | 1 | 20.5 | 16.1 | 25 |
| DDAH1 (GeneID 23576) | 0 | 5.7 | 5.1 | 6.3 |
| PPTC7 (GeneID 160760) | 0 | 6 | 3.5 | 8.5 |
| UBQLN4 (GeneID 56893) | -1 | -17.9 | -0.5 | -35.4 |
| ZBED4 (GeneID 9889) | 0 | 8 | 9.2 | 6.7 |
| ALDH9A1 (GeneID 223) | 1 | 8 | -7.2 | 23.2 |
| LOC159176 | 1 | 17.7 | 12.4 | 22.9 |
| LOC440284 | 0 | 10 | 2.9 | 17 |
| LOC442665 | 0 | -0.8 | -2.7 | 1 |
| YWHAB (GeneID 7529) | 0 | 1.4 | -5.6 | 8.4 |
| GTF2F2 (GeneID 2963) | 0 | 5 | 3.5 | 6.5 |
| LINC00484 (GeneID 100129347) | 0 | 3.5 | -0.4 | 7.4 |
| TMCO2 (GeneID 127391) | 1 | 11.8 | 5.6 | 18 |
| GIPC1 (GeneID 10755) | 0 | 3.6 | -2.9 | 10 |
| MID1IP1 (GeneID 58526) | 0 | 0 | 12.2 | -12.2 |
| SPANXA2 (GeneID 728712) | 0 | 1.1 | -8.1 | 10.4 |
| TFG (GeneID 10342) | 0 | 7.5 | 0.8 | 14.3 |
| LOC388652 | 1 | 13.5 | 10.4 | 16.6 |

Part of the list above, reformatted:
gene | two-siRNA summed score (-2 to +2) | mean protection from cisplatin (shift in death) (%) | protection from cisplatin (shift in death), siRNA C (%) | protection from cisplatin (shift in death), siRNA D (%)
REG1A (GeneID 5967) | 0 | 4.4 | -8.6 | 17.3
TSC22D1 (GeneID 8848) | 0 | 1.5 | 3.9 | -0.9
KIAA0540 | 0 | 6 | 3.7 | 8.4
SLPI (GeneID 6590) | 1 | 9.1 | 3.3 | 14.9
CRAT (GeneID 1384) | 1 | 7.9 | 29.8 | -14
LOC441886 | 0 | 6.7 | 4.7 | 8.8
PDE7B (GeneID 27115) | -1 | -15 | -14.6 | -15.4
TSEN34 (GeneID 79042) | 0 | -10.5 | -15.1 | -5.9
GPR160 (GeneID 26996) | 0 | -3.5 | -3.7 | -3.2
